Results are given in words; binding and its absence hold for the method and conditions named. Binding seen in cells or lysates may run through a third protein. Some binding calls cover weakened binding; strength is not graded here.
Assays:
[1] = target: SH2B adaptor protein 3 (SH2B3) (human) (UniProt Q9UQQ2); test: co-IP; cells lysed in RIPA buffer with protease inhibitors, lysate pre-cleared with protein A/G beads, primary antibody (anti-SH2B3 ab154848 or anti-gp130 sc-655, 1:100) overnight at 4°C, protein A/G beads 2 h, four washes with ice-cold PBS, immunoblot; cell line not stated
[2] = target: IL-6 receptor glycoprotein 130 (gp130) (human (endogenous in human GBM cell lines)) (UniProt P40189); test: as above

Sequences of proteins named here, by UniProt entry; tags and fusion partners are left off. Residues count along the entry.
UniProt Q9UQQ2: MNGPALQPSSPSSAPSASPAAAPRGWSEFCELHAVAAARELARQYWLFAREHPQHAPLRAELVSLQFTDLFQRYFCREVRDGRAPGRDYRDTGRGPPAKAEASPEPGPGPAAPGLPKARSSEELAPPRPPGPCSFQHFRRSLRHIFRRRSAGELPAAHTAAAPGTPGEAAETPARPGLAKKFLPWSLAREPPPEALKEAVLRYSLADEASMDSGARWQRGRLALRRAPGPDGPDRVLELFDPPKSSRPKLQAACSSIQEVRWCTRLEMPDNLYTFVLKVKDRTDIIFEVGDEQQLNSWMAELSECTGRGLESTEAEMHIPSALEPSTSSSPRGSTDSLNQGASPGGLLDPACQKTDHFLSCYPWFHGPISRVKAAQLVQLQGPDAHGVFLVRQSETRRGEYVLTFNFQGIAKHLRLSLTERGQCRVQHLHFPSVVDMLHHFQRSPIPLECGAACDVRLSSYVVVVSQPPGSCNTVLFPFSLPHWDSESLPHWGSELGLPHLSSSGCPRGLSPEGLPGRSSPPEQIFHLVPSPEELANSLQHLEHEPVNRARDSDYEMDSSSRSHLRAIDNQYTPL
UniProt P40189, residues 23-918: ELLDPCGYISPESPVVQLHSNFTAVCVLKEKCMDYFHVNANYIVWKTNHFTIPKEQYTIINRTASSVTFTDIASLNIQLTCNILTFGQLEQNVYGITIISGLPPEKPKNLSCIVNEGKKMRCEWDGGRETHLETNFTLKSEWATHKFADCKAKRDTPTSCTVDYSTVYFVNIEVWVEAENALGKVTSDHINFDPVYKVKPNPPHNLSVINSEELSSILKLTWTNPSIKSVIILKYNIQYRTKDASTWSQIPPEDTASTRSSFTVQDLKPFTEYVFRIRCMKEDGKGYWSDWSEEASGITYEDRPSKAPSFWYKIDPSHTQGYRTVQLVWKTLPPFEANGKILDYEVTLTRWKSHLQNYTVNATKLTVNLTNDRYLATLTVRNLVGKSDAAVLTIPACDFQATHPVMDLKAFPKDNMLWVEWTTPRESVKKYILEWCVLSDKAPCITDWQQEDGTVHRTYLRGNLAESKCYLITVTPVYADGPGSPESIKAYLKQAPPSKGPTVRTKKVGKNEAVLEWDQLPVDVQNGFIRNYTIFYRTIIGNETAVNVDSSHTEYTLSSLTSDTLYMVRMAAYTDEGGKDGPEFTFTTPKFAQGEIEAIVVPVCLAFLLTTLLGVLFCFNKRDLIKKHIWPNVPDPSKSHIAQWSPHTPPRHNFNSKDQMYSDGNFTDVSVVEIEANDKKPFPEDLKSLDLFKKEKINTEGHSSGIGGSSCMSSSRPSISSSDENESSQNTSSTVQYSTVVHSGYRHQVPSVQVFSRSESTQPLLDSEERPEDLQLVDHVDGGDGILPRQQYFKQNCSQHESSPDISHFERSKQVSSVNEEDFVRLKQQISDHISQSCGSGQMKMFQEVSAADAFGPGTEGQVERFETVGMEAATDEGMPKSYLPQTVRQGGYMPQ

binding [1]	binding [2]	Substance
binds	–	IL-6 receptor glycoprotein 130 (gp130) (from UniProt P40189 23-918)
–	binds	SH2B adaptor protein 3 (SH2B3) (from UniProt Q9UQQ2 1-575)

— PMC8080264
